Measurements as given in publication PMC6658674.
Where a chain is given by its changes, count along the chain named. No constants are given. Whether binding was seen depends on the method and setting. Some results given as binding are weak or reduced against the parent protein; the word gives no strength.

Tests used:
Assay in all cases: two-hybrid; Gal4 BD fusions (pGBT9) of Pex3 and Gal4 AD fusions (pGAD424) of Pex19 or TbPex3 in S. cerevisiae HF7c; growth on -His -Leu -Trp medium
[1] = molecular target: T1, ScPex3-Y144A (S. cerevisiae) (UniProt P28795)
T1 sequence: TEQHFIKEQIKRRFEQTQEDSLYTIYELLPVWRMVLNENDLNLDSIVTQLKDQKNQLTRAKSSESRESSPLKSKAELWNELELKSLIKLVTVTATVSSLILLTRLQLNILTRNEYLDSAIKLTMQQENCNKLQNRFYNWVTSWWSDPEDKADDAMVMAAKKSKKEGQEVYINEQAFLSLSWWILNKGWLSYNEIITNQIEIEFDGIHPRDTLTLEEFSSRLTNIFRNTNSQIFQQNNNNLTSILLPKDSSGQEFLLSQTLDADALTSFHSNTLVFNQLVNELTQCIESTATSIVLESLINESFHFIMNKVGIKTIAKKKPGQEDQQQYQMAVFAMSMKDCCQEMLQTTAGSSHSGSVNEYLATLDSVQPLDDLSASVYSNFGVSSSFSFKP

[2] = molecular target: T2, ScPex3-K124A (S. cerevisiae) (UniProt P28795)
T2 sequence: T1 sequence with K74A, A94Y

[3] = molecular target: T3, ScPex3-W128A (S. cerevisiae) (UniProt P28795)
T3 sequence: T1 sequence with W78A, A94Y

ScPex3 (S. cerevisiae) = molecular target: T4, ScPex3 (S. cerevisiae) (UniProt P28795)
T4 sequence: T1 sequence with A94Y

binding [1]: no binding
binding [2]: binds
binding [3]: no binding
binding (ScPex3 (S. cerevisiae)): binds
B1: ScPex19 (protein, UniProt Q07418 1-342)
chain: MNENEYDNFDDLDDLLDEDPTKLDEAEPDDVQAKGSVYNDSENKEKNAESKDSDGVQVANESEEDPELKEMMVDLQNEFANLMKNNGNENNVKTEDFNKLISALEEAAKVPHQQMEQGCSSLKSNSTDKGTVNGSNPGFKNIVSNTLDRLKENGNKVDTSLAEETKESQRSGQNNNIDDILSQLLDQMVASGGKESAENQFDLKDGEMDDAITKILDQMTSKEVLYEPMKEMRSEFGVWFQENGENEEHKEKIGTYKRQFNIVDEIVNIYELKDYDELKHKDRVTELLDELEQLGDSPIRSANSPLKHGNEEEELMKMLEIDGNDPNLGNLDKELTDGCKQQ
